Out of some 310,000 compounds screened, about 17,000 (5.5%) were called active. Inconclusive means that the source gave no clear call. Such entries were picked first, then a sample of the others. Calls follow the shape of the dose curve; as a rule, active = well fitted inhibition curve with a large enough effect; inconclusive = small, poorly fitted or top-dose-only effect, or effect the other way; inactive = no such curve, though single readings can be large or run the other way. Where the call is inconclusive, the potency comes from a doubtful curve fit.
Target: Nuclear receptor ROR-gamma (Mus musculus) (UniProt P51450)
Assay: qHTS for inhibitors of ROR gamma transcriptional activity; also: nearly all actives have a fitted effect of over 60% in size
Settings: Drosophila S2 Gal4-RORgamma UAS-luciferase reporter, 20 h; activity change, negative = inhibition: at 53.6 µM (top of the series)
Method in brief: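 In this cell-based reporter format, copper sulfate (700 uM final) drives Gal4–ROR gamma fusion expression from a metallothionein promoter in Drosophila Schneider cells; compounds preincubated 1 hr, reporter read after 20 hr at ambient temperature.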
% is scaled to controls: 0 for no effect and ±100 for the full control effect; potency is read from the fitted curve at half-maximal effect.

Chains of the proteins cited; added tags and fusions are not shown. Lines headed by an entry give the natural chain unless they say otherwise; changes in a name come on top.
UniProt P51450: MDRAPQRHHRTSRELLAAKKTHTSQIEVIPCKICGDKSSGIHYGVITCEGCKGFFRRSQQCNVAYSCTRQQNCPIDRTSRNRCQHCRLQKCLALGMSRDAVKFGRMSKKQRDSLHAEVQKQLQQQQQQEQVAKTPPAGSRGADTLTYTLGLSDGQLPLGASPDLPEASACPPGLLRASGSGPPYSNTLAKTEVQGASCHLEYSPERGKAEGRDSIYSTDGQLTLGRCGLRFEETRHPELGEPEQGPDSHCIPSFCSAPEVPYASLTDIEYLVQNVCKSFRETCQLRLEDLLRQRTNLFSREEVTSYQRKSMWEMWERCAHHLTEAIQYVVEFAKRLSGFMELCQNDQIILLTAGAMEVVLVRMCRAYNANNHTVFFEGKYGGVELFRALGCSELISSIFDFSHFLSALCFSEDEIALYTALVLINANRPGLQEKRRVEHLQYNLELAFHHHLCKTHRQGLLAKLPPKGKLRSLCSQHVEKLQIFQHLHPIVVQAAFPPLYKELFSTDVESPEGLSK

Potency, active:
Clc1ccc(CNc2nc(CN3CCOCC3)nc3scc(-c4ccccc4)c23)cc1 11.2 µM
COc1ccccc1CNC(=O)[C@@H](NC(=O)C1CCN(C(=O)[C@@H]2CCCN2C(=O)OC(C)(C)C)CC1)C(C)C 7.94 µM
COc1cccc(C2CC(c3cccs3)=NN2C(=S)Nc2ccccc2)c1OC (stereo not drawn) 8.91 µM
Cc1ccccc1C(=O)NC(=S)NC1CCSC1=O (stereo not drawn) 11.2 µM
O=C(COc1ccc(/C=N/NC(=O)c2cc3ccccc3o2)cc1Br)Nc1ccccc1 3.16 µM
CCNC(=S)Nc1cc(-c2ccc(Cl)cc2)[nH]n1 6.31 µM
Oc1ccc(NC(=S)N=Nc2c(O)[nH]c3ccc(Br)cc23)cc1 10 µM
O=C(/C=C/c1c(F)cccc1Cl)Nc1nc2ccccc2[nH]1 4.47 µM
CCCCn1nnc(NC(=S)NC(=O)c2cccs2)n1 1.12 µM
CC(=O)NC(c1ccc2ccccc2c1)c1ccc2cccnc2c1O (stereo not drawn) 5.01 µM
O=C(Nc1nc2ccccc2n1Cc1ccccc1)c1ccco1 2 µM
COc1nc(C)ccc1-c1noc(-c2cccnc2)n1 14.1 µM
CC(=O)/C(=N\Nc1cccc(Cl)c1)Sc1nnc(-c2ccccc2)n1-c1ccccc1 10 µM

In the list so far, 3 contain a thiophene ring, fused or not:
Potency, active:
Clc1ccc(CNc2nc(CN3CCOCC3)nc3scc(-c4ccccc4)c23)cc1 11.2 µM
COc1cccc(C2CC(c3cccs3)=NN2C(=S)Nc2ccccc2)c1OC (stereo not drawn) 8.91 µM
CCCCn1nnc(NC(=S)NC(=O)c2cccs2)n1 1.12 µM

Following part.

Potency, inconclusive:
O=C(NCCc1ccccc1)c1cc(-c2ccco2)on1 3.55 µM [activator, single point]
Cc1nnc(SCC(=O)Nc2ccc(O)cc2)c2ccccc12 28.2 µM [inhibitor, single point]
COc1ccccc1C/C(N)=N/OC(=O)COc1cccc2ccccc12 6.31 µM [activator, single point]
NC(=O)[C@@H]1CC2(CC(c3cccc(NC(=O)COc4ccc(Cl)cc4)c3)=NO2)CN1C(=O)c1ccccc1 (stereo partly drawn) 22.4 µM [activator, single point]
C=CCSc1nnc(C)c(/C=C/Nc2ccc(Cl)cc2)n1 15.8 µM [inhibitor, single point]
Cn1c(SC2=CS(=O)(=O)c3ccccc32)nc2ccccc21 25.1 µM [inhibitor, single point]
O=S(=O)(NCC(Nc1ccc(Cl)cc1)c1ccccc1)c1ccc(Cl)cc1 (stereo not drawn) 31.6 µM [activator, single point]
COc1cc(/C=N/NC(=S)NCCN2CCOCC2)cc(OC)c1OC 15.8 µM [inhibitor, single point]
O=C(NNC(=S)Nc1cccc(C(F)(F)F)c1)c1ccc(Cl)cc1Cl 17.8 µM [inhibitor, partial curve, poor fit]
Cc1ccc(NC(=O)C2C(c3ccccc3)C=CC(c3ccccc3)C2C(=O)O)cc1 (stereo not drawn) 35.5 µM [activator, single point]
Cn1c(=O)c2c(nc(NCc3ccccc3)n2Cc2ccc(F)cc2)n(C)c1=O 10 µM [activator, partial curve]
O=C(CN1CCC(NC(=O)c2ccco2)CC1)Nc1ccccc1[N+](=O)[O-] 25.1 µM [activator, single point]
Cc1ccc2c(c1)C1(C(=O)N2)N2CCCC2C(C(=O)c2ccc3ccccc3c2)C12C(=O)Nc1ccccc12 (stereo not drawn) 11.2 µM [activator, partial curve]
CN1/C(=C\C(=O)Nc2cccnc2)c2ccccc2CC1(C)C 0.398 µM [activator, full curve, poor fit]
Cc1cccc(C2=N[C@@H](CC(C)C)CO2)c1 63.1 µM [inhibitor, single point]
CC1(C)CC(=O)C2=C(C1)Nc1cc(C(=O)c3ccccc3)ccc1NC2c1ccccn1 (stereo not drawn) 2.82 µM [activator, full curve]
COc1ccc(C(CCNCc2ccc(OC(C)C)cc2)c2ccccc2OC)cc1 (stereo not drawn) 20 µM [inhibitor, single point]
CCOC(=O)c1ccc(-n2c(CN3CCN(CCO)CC3)nc3ccc([N+](=O)[O-])cc3c2=O)cc1 22.4 µM [activator, single point]
Oc1c(Br)cc(Br)cc1CNc1ccccn1 11.2 µM [activator, partial curve]
S=C(Nc1cccnc1)NC1CCCCCCC1 14.1 µM [inhibitor, single point]
CCOC(=O)c1cc(NC(=O)c2ccccc2)c(=O)oc1-c1ccccc1 11.2 µM [activator, partial curve]
Cc1ccc(Cl)cc1-n1c(SCC(=O)NCCC2=CCCCC2)nc2n[nH]c(C)c2c1=N 20 µM [inhibitor, single point]
CC1=C(C(=O)Nc2cc(C)ccn2)C(c2ccc(C)cc2)C2=C(CCCC2=O)N1 (stereo not drawn) 17.8 µM [inhibitor, partial curve]
O=c1[nH]c(C(Cl)Cl)nc2sc3c(c12)CCN(Cc1ccccc1)C3 11.2 µM [activator, single point]
O=C(NCC1CCCO1)c1ccccc1-c1nc(-c2ccc(Cl)cc2)no1 (stereo not drawn) 11.2 µM [activator, partial curve, poor fit]
CC(=O)c1cccc(Nc2ccc(-c3ccccc3F)nn2)c1 2.82 µM [activator, full curve, poor fit]
O=c1[nH]c2ccccc2n1CCCSCCCn1c(=O)[nH]c2ccccc21 35.5 µM [inhibitor, single point]
CN(C)S(=O)(=O)c1ccc(C(=O)N2CCC(c3nc4ccccc4o3)CC2)cc1 35.5 µM [activator, single point]
O=C(Nc1cccc(Cl)c1N1CCCC1)c1ccc(Br)o1 0.0562 µM [inhibitor, partial curve, poor fit]
Cc1ccc2nc(-c3ccncc3)cc(-c3ccccc3)c2c1 14.1 µM [inhibitor, partial curve]
O=S(=O)(NCc1cccnc1)c1ccc2ccccc2c1 35.5 µM [activator, single point]
COc1cccc(C(=O)OCC(=O)c2c[nH]c3ccccc23)c1O 35.5 µM [activator, single point]
O=C(CCN1C(=O)/C(=C\c2cccs2)SC1=S)Nc1ccccn1 17.8 µM [inhibitor, single point]
Cc1cc(Br)ccc1NC(=O)C(C)c1ccc([N+](=O)[O-])cc1 (stereo not drawn) 10 µM [activator, partial curve]
COc1cc2c(cc1OC)C(c1cccs1)N(C(=O)c1cccc(S(=O)(=O)N(C)C)c1)CC2 (stereo not drawn) 11.2 µM [activator, partial curve]
O=C(Nc1ccc(F)cc1)Nc1ccccc1NS(=O)(=O)c1cccs1 20 µM [activator, single point]
COc1ccc([N+](=O)[O-])cc1NC(=O)CSc1ccc2ccccc2c1 12.6 µM [activator, partial curve]
Cc1ccc(NS(=O)(=O)c2ccc3c(c2)oc(=O)n3C)c(C)c1 11.2 µM [activator, single point]
O=C(COC(=O)c1ccncc1)Nc1ccccc1 14.1 µM [activator, single point]

3 structures out of the list, sorted by formula weight, smallest number first.
Potency, inconclusive:
CCOC(=O)c1cc(NC(=O)c2ccccc2)c(=O)oc1-c1ccccc1 11.2 µM [activator, partial curve]
Cc1ccc(NC(=O)C2C(c3ccccc3)C=CC(c3ccccc3)C2C(=O)O)cc1 (stereo not drawn) 35.5 µM [activator, single point]
COc1ccc(C(CCNCc2ccc(OC(C)C)cc2)c2ccccc2OC)cc1 (stereo not drawn) 20 µM [inhibitor, single point]

Next part.

Activity change, negative = inhibition, inactive:
Cc1ccc(NC(=O)C2CCN(c3cnccn3)CC2)cc1C 19.7%
CN(CCCC(=O)O)S(=O)(=O)c1ccc2c(c1)C(=O)c1cc(S(=O)(=O)N(C)CCCC(=O)O)ccc1-2 -9.55% [at 1.91 µM]
O=C1c2cccnc2C(=O)N1C1CCCCC1 8.27%
Cc1ccc(NS(=O)(=O)c2ccc(Cl)c(C(=O)Nc3cccc(C(=O)O)c3)c2)cc1 -10.6%
Cc1ccc(F)c(C2C3C=CCC(C)C3C(=O)N2Cc2ccccc2)c1 (stereo not drawn) 9.93%
O=[N+]([O-])c1ccc(-n2nncc2-c2ccc(Cl)cc2)cc1 6.01%
O=C(O)c1ccccc1C(=O)N1CCN(c2ncccn2)CC1 11.8%
O=C(NCC1(c2ccccc2)CCCC1)C(=O)NCC1(c2ccccc2)CCCC1 4.47%
COc1ccccc1NC(=O)c1csc2c1CCC(C)C2 (stereo not drawn) -6.52%
COc1ccccc1CNc1ncncc1-c1ccc(C(=O)N(C)C)cc1 -15.2%
Cc1cc(C)cc(NC(=O)Oc2ccccc2N2CCCCC2)c1 -2.6%
CCC(NC(=O)c1ccc(C#CC2(O)CCCCC2)cc1)C(=O)O (stereo not drawn) -29.5%
COc1ccc(CN2CC(C(=O)NCCCN3CCCCC3)CC2=O)cc1 (stereo not drawn) -9.55%
CC(C)(C)c1nc2ccccc2c2nnc(SCC(=O)NCc3ccco3)n12 -16.4%
Cn1c(=O)c(=O)n(C)c2cc(S(=O)(=O)N3CCOCC3)ccc21 -15.8%
Cc1ccc(C2/C(=C(/O)c3ccc4c(c3)CC(C)O4)C(=O)C(=O)N2CCCn2ccnc2)cc1 (stereo not drawn) 22.6%
CCc1cc(C(=O)OCC(=O)N2CCC(c3ccccc3)=N2)sc1C -6.61%
O=C(CN1c2ccccc2Sc2ccccc21)N/N=C/c1ccccc1 8.89%
CCSc1nsc(NC(=O)Nc2cccc(OC)c2)n1 18.1% [at 1.91 µM]
COc1ccc(N(C)C2=NS(=O)(=O)c3ccccc32)cc1 -4.12%
Cc1cc(Cl)c(S(=O)(=O)NC2CCCC2)cc1OCC(=O)NC1CCCCC1 -10.8%

Source: PubChem BioAssay AID2551 (National Center for Advancing Translational Sciences (NCATS), 2010)
